The other results are listed elsewhere or left out. Further columns of the screen follow, without active or inactive calls. Most of these compounds were active or inconclusive in the main read-out, so they are no random draw. The note in brackets gives the kind of curve behind each potency; many fits are weak.
Experiment: qHTS Assay for Lipid Storage Modulators in Drosophila S3 Cells;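 for cell number change: cells counted by Cell Tracker Red CMTPX staining in the red channel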
Details: BODIPY lipid droplet fluorescence, 18-24 h; for cell number change: measured here: cell count max response, cells fed with added oleic acid
How it was run: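 Laser-scanning cytometry quantifies lipid droplet accumulation (500–530 nm total intensity; droplet/cell object ratio) in oleic acid-fed (400 uM added) Drosophila S3 cells treated with a concentration series. 20 uM Triacsin C defined 100% inhibition.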

[1] = measured here: lipid fluorescence (Fed channel) AC50, cells fed with added oleic acid
[2] = measured here: cell number channel AC50, cells fed with added oleic acid

SMILES | cell number change [%] | AC50 [1] | AC50 [2]
O=S(=O)(NC1CCN(S(=O)(=O)c2ccc3c(c2)OCCO3)C1)c1c(F)cccc1F (configuration not stated) | -14 | 4.61 µM [falling, single point] | –
Cc1ccccc1C(=O)N1CCC(C(=O)Nc2ccc(S(=O)(=O)N3CCOCC3)cc2)CC1 | -12.8 | 23.1 µM [falling, partial curve, poor fit] | –
CCC(C)NC(=O)c1oc2ccc(S(=O)(=O)N3CCC4(CC3)OCCO4)cc2c1C (configuration not stated) | 20.3 | 11.6 µM [rising, single point] | –
CN(CC(=O)NC1CCCCC1)S(=O)(=O)c1ccc(Br)s1 | – | 0.58 µM [falling, single point] | –
C(=N/Nc1nc(-c2ccccc2)cc(-c2ccccc2)n1)/c1cccnc1 | -27.8 | – | –
CN1CCN(c2ccc(-c3ccnn3C(=O)Nc3cccc(C(F)(F)F)c3)cc2)CC1 | -46.1 | – | –
COc1ccc(-c2noc(N3CCC(C(=O)NCCCN4CCCCC4)CC3)n2)cc1 | 4.03 | 29.1 µM [rising, single point] | –
CC(C)[C@H](NC(=O)c1ccccc1)C(=O)OCC(=O)NCCc1ccc(F)cc1 | 10 | 3.26 µM [rising, partial curve, poor fit] | –
CC(C)c1ccc(NC(=O)COC(=O)c2ccc(CN3CCCC3=O)cc2)cc1 | -51.5 | 1.16 µM [falling, full curve] | 0.651 µM [falling, full curve]
O=C(NC1CCS(=O)(=O)C1)c1c(NC(=O)C2COc3ccccc3O2)sc2c1CCCC2 (configuration not stated) | 12.4 | 29.1 µM [rising, single point] | –
Cc1cc(NC(=O)c2cc(Cl)ccc2Cl)no1 | 1.3 | 0.206 µM [rising, full curve] | –
CC(OC(=O)C(NC(=O)c1ccco1)C(C)C)C(=O)Nc1ncc(Cl)cc1Cl (configuration not stated) | -13.2 | 29.1 µM [falling, single point] | –
O=C(NNC(=O)c1c(O)c2ccccc2[nH]c1=O)c1ccccc1 | 5.56 | 8.2 µM [rising, partial curve] | –
O=C(c1cc(=O)c2ccccc2o1)N1CCCc2ccccc21 | 17.9 | 3.66 µM [rising, partial curve] | –
Cc1ccc(C(=O)N2CCN(c3ccc(NC(=O)c4cccnc4Cl)cc3)CC2)cc1 | -3.36 | – | –
COc1cc(C(=O)/C=C/Nc2ccc(NC(C)=O)cc2)cc(OC)c1OC | 12.2 | – | 6.51 µM [rising, single point]
CC(C)(C)c1ccc(C2C3=C(CCCC3=O)NC3=C2C(=O)c2ccccc23)cc1 (configuration not stated) | -19.7 | 32.6 µM [falling, single point] | –
Cc1oc(-c2nc3ccccc3n2C)cc1C(=O)c1ccccc1 | -28.8 | 13 µM [falling, single point] | –
CCC1(C)Cc2c(sc3nc(SC)nc(N)c23)CO1 (configuration not stated) | 68.3 | 23.1 µM [rising, single point] | 18.4 µM [rising, single point]
COc1ccc(-c2cc(C(=O)Nc3cccc(C(C)=O)c3)no2)cc1 | -6.94 | 0.92 µM [rising, single point] | –

SMILES | cell number change [%] | AC50 [1] | AC50 [2]
Cc1ccc(N2CC(C(=O)N3CCC(C(=O)Nc4ccc(Br)cc4)CC3)CC2=O)cc1 (configuration not stated) | -3.81 | – | –
Nc1nc(-c2ccco2)c(-c2ccco2)s1 | -13.9 | – | –
Cc1nc(NS(=O)(=O)c2ccccc2)sc1C(=O)N/N=C/c1ccccc1 | 16.1 | 1.3 µM [falling, partial curve] | 1.3 µM [falling, partial curve, poor fit]
CN(CC(=O)NCc1ccccn1)S(=O)(=O)c1ccc(Cl)cc1 | 10.5 | – | –
COC(=O)c1sccc1NC(=O)CSc1ccccc1NS(=O)(=O)c1ccccc1Cl | 25.6 | 3.66 µM [rising, full curve] | 0.291 µM [rising, full curve, poor fit]
COc1cccc(C(=O)Nc2ccncc2)c1OC | -8.5 | 29.1 µM [falling, single point] | –
O=C(N/N=C/c1ccc(Br)o1)c1cc([N+](=O)[O-])cc([N+](=O)[O-])c1 | 9.19 | 0.00461 µM [rising, full curve, poor fit] | 0.00461 µM [rising, full curve, poor fit]
Nc1ccc(Cc2ccc(N)c(C(=O)O)c2)cc1C(=O)O | 35.6 | – | 0.0103 µM [rising, full curve, poor fit]
CCC(=O)Nc1ccc(C(=O)OCC(=O)c2ccc(C)c([N+](=O)[O-])c2)cc1 | -34.7 | 29.1 µM [falling, single point] | 29.1 µM [falling, single point]
CCN(CC)C(=O)C1CCCN(c2ncnc3c2cnn3-c2ccc(Cl)cc2)C1 (configuration not stated) | -6.59 | – | –
CC1CCc2cc(F)ccc2N1C(=O)c1cccs1 (configuration not stated) | 4.65 | 6.51 µM [falling, single point] | –
Cc1ccc(/C=C2/SC(=S)N(CC(=O)Nc3ncc(Cc4ccc(C)cc4)s3)C2=O)cc1 | -5.71 | 0.146 µM [falling, partial curve] | 0.651 µM [falling, full curve, poor fit]
COc1ccc(-c2nnc(SCCc3ccccc3)n2N)cc1 | – | 6.51 µM [rising, single point] | 6.51 µM [rising, single point]
Cc1cc(Nc2ncc(Cl)cc2Cl)n[nH]1 | 25.5 | 0.651 µM [rising, single point] | –
CCOc1cccc2sc(NC(=O)CCS(=O)(=O)c3ccccc3)nc12 | -12.8 | 8.91 µM [falling, partial curve] | –
Cc1ccc(S(=O)(=O)N2CCCCC2CCNC(=O)C(=O)NCc2ccncc2)cc1 (configuration not stated) | -29.2 | 4.61 µM [falling, full curve, poor fit] | –
CCC(Sc1nc2ccncc2[nH]1)C(=O)Nc1ccc(C)c(Cl)c1 (configuration not stated) | 11.7 | 29.1 µM [falling, single point] | –
COc1cccc(N(CC(=O)NC2CC3CCC2C3)S(=O)(=O)c2ccccc2)c1 (configuration not stated) | 2.86 | – | –
Clc1cnc(Nc2cccnc2)c(Cl)c1 | – | 29.1 µM [rising, partial curve, poor fit] | –
CCC/C(=N\NC(=O)C1CCCC1)c1ccccc1 | -10.9 | 29.1 µM [rising, single point] | –

SMILES | cell number change [%] | AC50 [1] | AC50 [2]
COc1ccc(N2CCN(C(=O)c3c(C)nn(-c4ccccc4)c3C)CC2)cc1 | – | 29.1 µM [rising, single point] | 0.116 µM [falling, full curve, poor fit]
COCCCNC(=O)Cn1cc(C(=O)C2CC2)c2ccccc21 | 18.8 | 14.6 µM [rising, single point] | –
Cc1ccc(N2C(=O)N3[C@H]4c5ccccc5OC[C@@H]4[C@@H](c4ccccc4)[C@@]3(C)C2=O)cc1 | 9.06 | 29.1 µM [rising, partial curve] | –
C=CCN([C@@H](CC(C)C)C(=O)OC)S(=O)(=O)N(CC=C)[C@@H](CC(C)C)C(=O)OC | -37.2 | – | 16.4 µM [falling, single point]
CC(C)(C)N=Cc1cc(-c2ccccc2)sc1O | -22.2 | 3.26 µM [falling, full curve, poor fit] | 3.66 µM [falling, full curve, poor fit]
O=C(CCN1CCN(Cc2ccccc2)CC1)NNC(=O)Nc1cccc([N+](=O)[O-])c1 | -4.91 | 2.06 µM [rising, full curve, poor fit] | –
COc1ccc(Nc2ccc(S(=O)(=O)N3CCCCC3)cc2[N+](=O)[O-])cc1Cl | -45.4 | 23.1 µM [falling, single point] | 29.1 µM [falling, single point]
O=C(Nc1cccc2c1CCCC2)C1CCCN(S(=O)(=O)c2cccc3nonc23)C1 (configuration not stated) | 69.1 | – | 23.1 µM [rising, partial curve, poor fit]
Cc1oc(C(C)(C)C)cc1C(=O)Nc1cccc(/C=C\C(=O)O)c1 | 30.8 | – | 29.1 µM [rising, single point]
Fc1ccccc1-c1nc(-c2ccccc2)no1 | -27.6 | 29.1 µM [falling, single point] | –
COC(=O)c1ccccc1OCC(=O)NC1CCCCC1 | – | 3.66 µM [rising, partial curve] | –
O=C(Nc1ccccc1N1CCCC1)C1CCN(C(=O)c2ccc(Cl)cc2)CC1 | 50.5 | – | 1.3 µM [rising, full curve]
Cc1ccc(NC(=O)[C@H](Cc2c[nH]c3ccccc23)NC(=O)[C@@H]2Cc3ccccc3CN2)c(C)c1 | 13.4 | – | –
CCOc1ccc(NC(=S)Nc2ccccc2C2CC2)cc1 | -31.4 | 32.6 µM [falling, single point] | 18.4 µM [falling, single point]
N#CC1=C(N)N(c2ccccc2)C(=O)C1 | – | – | 1.64 µM [rising, partial curve, poor fit]
O=S(=O)(c1cccc2nsnc12)N1CCc2ccccc2C1 | 30.5 | – | 16.4 µM [rising, single point]
CC(C)CN(C(=O)COC(=O)COc1ccc2c(c1)CCC2)c1c(N)n(Cc2ccccc2)c(=O)[nH]c1=O | -20.3 | – | 0.13 µM [falling, full curve, poor fit]
COc1cccc(OCC(=O)N(Cc2nc(-c3ccc(Cl)cc3)no2)C(C)C)c1 | – | 2.06 µM [rising, partial curve] | –

Among those listed so far, four contain a nitro group on carbon:
SMILES | cell number change [%] | AC50 [1] | AC50 [2]
O=C(N/N=C/c1ccc(Br)o1)c1cc([N+](=O)[O-])cc([N+](=O)[O-])c1 | 9.19 | 0.00461 µM [rising, full curve, poor fit] | 0.00461 µM [rising, full curve, poor fit]
CCC(=O)Nc1ccc(C(=O)OCC(=O)c2ccc(C)c([N+](=O)[O-])c2)cc1 | -34.7 | 29.1 µM [falling, single point] | 29.1 µM [falling, single point]
O=C(CCN1CCN(Cc2ccccc2)CC1)NNC(=O)Nc1cccc([N+](=O)[O-])c1 | -4.91 | 2.06 µM [rising, full curve, poor fit] | –
COc1ccc(Nc2ccc(S(=O)(=O)N3CCCCC3)cc2[N+](=O)[O-])cc1Cl | -45.4 | 23.1 µM [falling, single point] | 29.1 µM [falling, single point]
